PMC3079584

Protein sequences, listed by entry. Tags and fused reporters are not part of them. Residues count along the entry.
UniProt P36068, 1-240, stated change not applied: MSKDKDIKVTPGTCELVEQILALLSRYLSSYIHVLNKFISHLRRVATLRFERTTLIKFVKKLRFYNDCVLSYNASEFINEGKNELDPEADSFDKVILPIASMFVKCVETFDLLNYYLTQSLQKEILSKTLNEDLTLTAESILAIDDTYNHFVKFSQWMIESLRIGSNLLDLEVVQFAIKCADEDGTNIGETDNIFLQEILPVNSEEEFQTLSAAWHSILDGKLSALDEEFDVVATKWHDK
UniProt P36068, whole entry F195A/L196A: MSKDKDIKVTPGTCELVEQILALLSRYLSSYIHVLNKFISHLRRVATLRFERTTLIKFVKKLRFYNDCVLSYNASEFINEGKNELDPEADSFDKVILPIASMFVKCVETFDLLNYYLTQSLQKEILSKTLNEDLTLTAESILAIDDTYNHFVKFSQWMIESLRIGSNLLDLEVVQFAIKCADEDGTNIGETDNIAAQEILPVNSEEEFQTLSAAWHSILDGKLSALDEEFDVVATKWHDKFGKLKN
UniProt P36068, whole entry Q197A/E198A/I199A: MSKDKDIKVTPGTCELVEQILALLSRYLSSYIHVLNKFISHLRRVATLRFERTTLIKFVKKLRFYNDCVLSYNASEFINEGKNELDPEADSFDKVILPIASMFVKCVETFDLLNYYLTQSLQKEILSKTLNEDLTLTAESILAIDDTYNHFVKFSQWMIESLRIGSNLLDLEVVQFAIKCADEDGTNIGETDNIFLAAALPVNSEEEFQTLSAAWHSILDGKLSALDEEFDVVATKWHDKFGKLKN
UniProt Q04373, 2-656: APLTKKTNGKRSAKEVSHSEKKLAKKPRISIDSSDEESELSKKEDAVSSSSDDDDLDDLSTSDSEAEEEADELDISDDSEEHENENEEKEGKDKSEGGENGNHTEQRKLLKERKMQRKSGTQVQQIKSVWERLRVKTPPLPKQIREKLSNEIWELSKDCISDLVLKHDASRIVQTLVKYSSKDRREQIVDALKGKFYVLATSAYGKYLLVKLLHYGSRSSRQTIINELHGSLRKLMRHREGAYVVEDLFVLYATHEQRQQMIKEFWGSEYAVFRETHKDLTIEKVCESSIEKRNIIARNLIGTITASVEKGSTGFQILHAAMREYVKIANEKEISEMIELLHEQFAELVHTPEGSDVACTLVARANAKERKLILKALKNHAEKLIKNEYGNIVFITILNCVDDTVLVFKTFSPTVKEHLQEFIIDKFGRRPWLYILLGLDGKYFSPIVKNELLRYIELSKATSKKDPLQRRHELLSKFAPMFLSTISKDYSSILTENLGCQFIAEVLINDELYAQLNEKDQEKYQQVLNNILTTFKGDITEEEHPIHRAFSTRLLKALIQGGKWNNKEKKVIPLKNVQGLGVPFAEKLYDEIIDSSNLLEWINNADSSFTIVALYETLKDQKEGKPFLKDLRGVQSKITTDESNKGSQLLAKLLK

Tests used:
[1] = target: She2p (ΔhE) del174-183 (Saccharomyces cerevisiae) (UniProt P36068); assay: filter binding; details: filter binding: 20 mM HEPES pH 7.4-7.5 (7.9 with She3p), 150 mM NaCl, 2 mM MgCl2, 2 mM DTT, 30 ug/ml yeast tRNA, 0.5 nM RNA, recombinant protein, protein details: GST tag (PreScission-cleaved), label: 32P
[2] = target: She2p (ΔC) (Saccharomyces cerevisiae) (UniProt P36068); assay: filter binding; details: filter binding: 20 mM HEPES pH 7.4-7.5 (7.9 with She3p), 150 mM NaCl, 2 mM MgCl2, 2 mM DTT, 30 ug/ml yeast tRNA, 0.5 nM RNA, recombinant protein, protein details: GST tag (PreScission-cleaved), label: 32P
[3] = target: She2p (F195A L196A) (Saccharomyces cerevisiae) (UniProt P36068); assay: filter binding; details: vs wild type, range over two mutants; filter binding: 20 mM HEPES pH 7.4-7.5 (7.9 with She3p), 150 mM NaCl, 2 mM MgCl2, 2 mM DTT, 30 ug/ml yeast tRNA, 0.5 nM RNA; recombinant protein; protein details: GST tag (PreScission-cleaved); label: 32P
[4] = target: She2p (Q197A E198A I199A) (Saccharomyces cerevisiae) (UniProt P36068); assay: filter binding; details: vs wild type, range over two mutants; filter binding: 20 mM HEPES pH 7.4-7.5 (7.9 with She3p), 150 mM NaCl, 2 mM MgCl2, 2 mM DTT, 30 ug/ml yeast tRNA, 0.5 nM RNA; recombinant protein; protein details: GST tag (PreScission-cleaved); label: 32P
[5] = system: She2p + She3p (L364A V367A); assay: EMSA; details: synergism +; EMSA: 20 mM HEPES pH 7.8, 200 mM NaCl, 2 mM MgCl2, 2 mM DTT, 4% glycerol, 30 or 100 ug/ml yeast tRNA, 5 nM RNA, 20 C; recombinant protein; protein details: GST tag (PreScission-cleaved),C-terminal His6; label: 32P
She2p + She3p (354-425) = assay: EMSA; details: synergism +; EMSA: 20 mM HEPES pH 7.8, 200 mM NaCl, 2 mM MgCl2, 2 mM DTT, 4% glycerol, 30 or 100 ug/ml yeast tRNA, 5 nM RNA, 20 C; recombinant protein; label: 32P
[6] = target: T1, She3p (354-425) (Saccharomyces cerevisiae) (UniProt P38272); assay: EMSA; details: ++; EMSA: 20 mM HEPES pH 7.8, 200 mM NaCl, 2 mM MgCl2, 2 mM DTT, 4% glycerol, 30 or 100 ug/ml yeast tRNA, 5 nM RNA, 20 C; recombinant protein; residues 354-425; protein details: MBP and His6 (EMSA), His6 (SEC); label: 32P
T1 sequence (looked up): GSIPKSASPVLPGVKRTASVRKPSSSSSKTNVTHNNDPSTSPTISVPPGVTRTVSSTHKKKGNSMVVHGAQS

She2p + She3p (S348E) = assay: EMSA; details: synergism ++; EMSA: 20 mM HEPES pH 7.8, 200 mM NaCl, 2 mM MgCl2, 2 mM DTT, 4% glycerol, 30 or 100 ug/ml yeast tRNA, 5 nM RNA, 20 C; recombinant protein; protein details: GST tag (PreScission-cleaved),C-terminal His6; label: 32P
[7] = system: She2p (Q197A E198A I199A) + She3p; assay: EMSA; details: synergism +; EMSA: 20 mM HEPES pH 7.8, 200 mM NaCl, 2 mM MgCl2, 2 mM DTT, 4% glycerol, 30 or 100 ug/ml yeast tRNA, 5 nM RNA, 20 C; recombinant protein; protein details: GST tag (PreScission-cleaved),C-terminal His6; label: 32P
[8] = system: She2p (F195A L196A) + She3p; assay: EMSA; details: synergism +; EMSA: 20 mM HEPES pH 7.8, 200 mM NaCl, 2 mM MgCl2, 2 mM DTT, 4% glycerol, 30 or 100 ug/ml yeast tRNA, 5 nM RNA, 20 C; recombinant protein; protein details: GST tag (PreScission-cleaved),C-terminal His6; label: 32P
[9] = target: Puf6p (Saccharomyces cerevisiae) (UniProt Q04373); assay: competition with a labelled probe; details: 10-500x unlabeled EAR1 vs ASH1-E3 probe, competes poorly; EMSA: 20 mM HEPES pH 7.8, 200 mM NaCl, 2 mM MgCl2, 2 mM DTT, 4% glycerol, 30 or 100 ug/ml yeast tRNA, 5 nM RNA, 20 C; recombinant protein; label: 32P
She2p (ΔC) + She3p [10] = assay: EMSA; details: impaired, not abolished; EMSA: 20 mM HEPES pH 7.8, 200 mM NaCl, 2 mM MgCl2, 2 mM DTT, 4% glycerol, 30 or 100 ug/ml yeast tRNA, 5 nM RNA, 20 C; recombinant protein; protein details: GST tag (PreScission-cleaved),C-terminal His6; label: 32P
GST = GST (UniProt P08515); assay: pull-down; details: immobilized GST control; pull-down: HNMD buffer, 4 C; recombinant protein
She2p + She3p = assay: size-exclusion chromatography; details: no ternary complex; recombinant protein; protein details: GST tag (PreScission-cleaved),C-terminal His6
She2p (ΔC) + She3p [11] = assay: size-exclusion chromatography; details: no ternary complex; recombinant protein; protein details: GST tag (PreScission-cleaved),C-terminal His6
Puf6p + She2p + She3p = assay: pull-down; details: His-She3p immobilized, no Puf6p co-elution; pull-down: HNMD buffer, 4 C; recombinant protein
Puf6p + She2p = assay: pull-down; details: GST-Puf6p immobilized; pull-down: HNMD buffer, 4 C; recombinant protein

“GAGACAGUAGAGAAUUGAUACAUGGAUAACUGAAUCUCUUUCAACUAAUAAGAGACAUUAUCACGAAACAAUUGUACAUUUCUCUCCUUGUCUGUGCUAAAUAAACUACAAAUAAAAA [ASH1 E3-118]”: binds more weakly ([1]; +, residues 1-246); binds more weakly ([2]; +); binds more weakly [3]. “GAGACAGUAGAGAAUUGAUACAUGGAUAACUGAAUCUCUUUCAACUAAUAAGAGACAUUAUCACGAAACAAUUGUACAUUUCUCUCCUUGUCUGUGCUAAAUAAACUACAAAUAAAAA [ASH1 E3-118]”: binds more weakly [4]; binds more weakly [5]; binds more weakly (She2p + She3p (354-425)). “GAGACAGUAGAGAAUUGAUACAUGGAUAACUGAAUCUCUUUCAACUAAUAAGAGACAUUAUCACGAAACAAUUGUACAUUUCUCUCCUUGUCUGUGCUAAAUAAACUACAAAUAAAAA [ASH1 E3-118]”: binds more weakly [6]; binds more weakly (She2p + She3p (S348E)); binds more weakly [7]. “GAGACAGUAGAGAAUUGAUACAUGGAUAACUGAAUCUCUUUCAACUAAUAAGAGACAUUAUCACGAAACAAUUGUACAUUUCUCUCCUUGUCUGUGCUAAAUAAACUACAAAUAAAAA [ASH1 E3-118]”: binds more weakly [8].
“AAGACUAUGUUAAAAUACGCGAAGAAGUGGCUCAUUUCAAGCCAUUAAGUAUACCCAACUUAACUAAUAAUCAAAAUAA [ASH1 E1]”: binds more weakly ([1]; residues …); binds more weakly [2].
“UUGCGAAUAGAGACAUUCUAUCGAACAAUUCCAAAUCUAAUGUAAGGAAACCAUCUAAGAACAAAAUCUCAAAGCAA [ASH1 E2A]”: binds more weakly ([1]; residues …); binds more weakly [2].
“AUCUUCAUCUCCAUCUCCCUCCACACCGACGAAAAGUGGCAAGAUGAGAUCAAGAUCA [ASH1 E2B (domain 1)]”: binds more weakly ([1]; residues …); binds more weakly [2].
“CGAAGAUGAAAAUGAUCACGAGAGAGAUCCCGAACAAUUUUCAGAAUUUG [EAR1 zip code]”: binds more weakly [9]; binds more weakly ([1]; moderately reduced, residues 1-246); binds more weakly ([2]; moderately reduced). “CGAAGAUGAAAAUGAUCACGAGAGAGAUCCCGAACAAUUUUCAGAAUUUG [EAR1 zip code]”: binds more weakly (She2p (ΔC) + She3p [10]).
“UUAUCCAUUGCACUCCGGAUGU [U1 snRNA hairpin II]”: binds ([1]; not reduced vs wild type, residues 1-246); binds ([2]; not reduced vs wild type).
“GGCUACGUAGCUCAGUUGGUUAGAGCAGCGGCCGGAGACAGUAGAGAAUUGAUACAUGGAUAACUGAAUCUCUUUCAACUAAUAAGAGACAUUAUCACGAAACAAUUGUACAUUUCUCUCCUUGUCUGUGCUAAAUAAACUACAAAUAAAAACCGCGGGUCACAGGUUCGAAUCCCGUCGUAGCCACCA [E3-118-tRNA]”: no binding (GST).
“GGCUACGUAGCUCAGUUGGUUAGAGCAGCGGCCUGAAUCUCUUUCAACUAAUAAGAGACAUUAUCAGGCCGCGGGUCACAGGUUCGAAUCCCGUCGUAGCCACCA [E3-33-tRNA]”: no binding (She2p + She3p); no binding (She2p (ΔC) + She3p [11]); no binding (Puf6p + She2p + She3p). “GGCUACGUAGCUCAGUUGGUUAGAGCAGCGGCCUGAAUCUCUUUCAACUAAUAAGAGACAUUAUCAGGCCGCGGGUCACAGGUUCGAAUCCCGUCGUAGCCACCA [E3-33-tRNA]”: no binding (Puf6p + She2p).
“AGUUCAAAAACGUCCACGAAAUUGGACACGAAAACU [WSC2N]”: binds more weakly ([1]; almost abolished, residues 1-246); binds more weakly ([2]; moderately reduced).

For some assays here: A negative result means that nothing was seen under these conditions. For some assays here: Weaker means in comparison with the reference protein, sequence or condition of that experiment. For some assays here: Tags and fusion partners may be left off the protein sequences shown. For some assays here: For at least one entry, the source does not settle the construct or the ends of the probe. For some assays here: At least one verdict rests on a figure or table, not on a statement of the authors.
